Test [1] concerns the target human IL-23R (hIL-23R), custom construct with C-terminal avi and his tags, biotinylated (human) (UniProt Q5VWK5). The test is described as follows: yeast display FACS.
Test [2] shares this target. Briefly: yeast display FACS, SIF incubation then labeled hIL-23R.
Test [3] has as its target T1, mouse IL-23R-Fc fusion (R&D), chemically biotinylated (mouse) (UniProt Q8K4B4).
T1 sequence (chemically biotinylated via free amines (EZ-Link NHS-LC-Biotin), looked up): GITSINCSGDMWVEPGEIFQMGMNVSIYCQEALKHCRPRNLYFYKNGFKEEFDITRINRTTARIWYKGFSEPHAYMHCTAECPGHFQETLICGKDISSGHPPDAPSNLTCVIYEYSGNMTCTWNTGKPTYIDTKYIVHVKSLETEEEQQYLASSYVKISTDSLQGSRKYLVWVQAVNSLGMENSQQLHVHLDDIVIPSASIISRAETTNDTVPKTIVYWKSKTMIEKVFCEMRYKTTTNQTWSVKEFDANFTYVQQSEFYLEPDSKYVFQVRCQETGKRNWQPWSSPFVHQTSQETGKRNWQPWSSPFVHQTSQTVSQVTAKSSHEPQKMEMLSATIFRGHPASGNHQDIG
The test is described as follows: yeast display library screen against mouse IL-23R (m prefix).

The chains behind the UniProt entries cited, without tags or fusion partners. Residues count along the entry.
UniProt Q5VWK5, residues 24-355: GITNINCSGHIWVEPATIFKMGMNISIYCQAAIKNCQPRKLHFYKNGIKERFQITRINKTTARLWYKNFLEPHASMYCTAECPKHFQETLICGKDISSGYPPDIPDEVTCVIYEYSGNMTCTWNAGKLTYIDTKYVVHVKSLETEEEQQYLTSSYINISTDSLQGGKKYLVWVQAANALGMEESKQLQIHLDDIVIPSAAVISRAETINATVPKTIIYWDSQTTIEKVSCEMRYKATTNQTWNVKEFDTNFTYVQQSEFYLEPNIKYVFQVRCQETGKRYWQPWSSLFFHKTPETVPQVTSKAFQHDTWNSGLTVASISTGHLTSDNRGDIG

No constants are given. Whether binding was seen depends on the method and setting. Some binding calls cover weakened binding; strength is not graded here. For part of these data: Where a sequence is shown, tags or fusion partners need not be part of it.

For 51 molecules, binding results are on record in US20230357323A1, “HUMAN IL23 RECEPTOR BINDING POLYPEPTIDES” (University of Washington, priority 2020, published 2023).

Take FCITCNNQTFCAEWRWAAWYMCQKAR (designed binder) [23R_mini_10]: the binding entry in test [1] is reported as “binds”.
CRVCMNQMCVDAQECWMAYYLLNQYT (designed binder) [23R_mini_14_C18]: in test [2], the binding entry is “binds”.
The same measure, in the same setting: next, CKVKCGGVEFEATERWMCFYWFNKYC (designed binder) [23R_mini_17_C2]: “binds”.
For CRVCRNNFCVDAQWCWAAFYMLQKYN (designed binder) [23R_mini_12], the binding entry in test [1] was “binds”.
Regarding CRVCMNGMCVDAQECWMAYYLLNQYN (designed binder) [23R_mini_14_C11], the binding entry in test [2] is reported as “binds”.
For the molecule CRVCMNGFCVDAVECWMAYYLLNQYT (designed binder) [23R_mini_14_C17], the binding result in test [2] is given as “binds”.
With CRVCKNNFCVDAQECWMAYYLLNQYT (designed binder) [23R_mini_14_C2], in test [2], the binding entry is “binds”.
Regarding CRVCRNNFCVDARECWMAYYLLNQYN (designed binder) [23R_mini_14_C9], the binding result in test [2] is recorded as “binds”.
As to CERAEEERRRARTWEDFYKANKLC (designed binder) [23R_mini_06], in test [1], the binding entry is listed as “binds”.
Regarding CRVCRNNFCVDAVECWMAYYLLNQYT (designed binder) [23R_mini_14_C10], the binding result in test [2] is reported as “binds”.
Turning to CEALEWFERVGKTWMWFYLLNTC (designed binder) [23R_mini_02], the binding result in test [1] is “binds”.
As for CKVKCGSVEFEATERWMCYYWAWKYC (designed binder) [23R_mini_17_C4], the binding entry in test [2] is recorded as “binds”.
With PDPNRCEDYKRRLHLRWAVLWYCRRF (designed binder) [23R_mini_09], the binding entry in test [1] is on record as “binds”.
The same measure, in the same setting: then CETLEWMKRQGDNWMWFYMMNYC (designed binder) [23R_mini_03], with “binds”; and CEEARELIRNANGWKDVWKAWKYC (designed binder) [23R_mini_07], with “binds”.
Regarding CKLKCGGVEFEATERWMCYYWWNKYC (designed binder) [23R_mini_17_C12], in test [2], the binding result is on record as “binds”.
As for CRVCDNNFCVDAQWCWAAFYLLQKYK (designed binder) [23R_mini_11], the binding result in test [1] is given as “binds”.
As to CKVKCGPVEFEATERWMCYYWLWKYC (designed binder) [23R_mini_17_C9], the binding entry in test [2] is given as “binds”.
On to CEEAEKIRRRAQTWEEFYRANQIC (designed binder) [23R_mini_04], for which the binding result in test [1] was “binds”.

B1: mA01 (designed binder)
chain: MEPEKYVREQVKKYYEQKLSHQEAVEEVRKYARKKGLEAWKLTWYFMQLVKREI
Consider B1, for which the binding result in test [3] is on record as “binds”.

B2: mA02 (designed binder)
chain: MEEEKYVRELVKKYYEQKLSHPEAVEEIRKYARKKGLEAWKLVWYFMQLVKRNI
Consider B2, for which the binding entry in test [3] was “binds”.
On to CRVCMNGMCVDARECWMAYYLLNQYT (designed binder) [23R_mini_14_C13], for which the binding entry in test [2] is on record as “binds”.
CRVCMNNMCVDARECWMAYYLLNQYN (designed binder) [23R_mini_14_C1]: in test [2], the binding result was “binds”.
On to CRVCRNNMCVDARECWMAYYLLNQYT (designed binder) [23R_mini_14_C6], for which the binding result in test [2] is reported as “binds”.
For the molecule CRVCKNGFCVDARECWMAYYLLNQYN (designed binder) [23R_mini_14_C4], in test [2], the binding result is on record as “binds”.

B3: mA03 (designed binder)
chain: MEEEKYVRELVKKYYEGKLSHPEAVEEIRKYARKKGEEAWKLVWYFMQLVKRDI
As for B3, the binding entry in test [3] is listed as “binds”.
As to CERKEWMERLGHNWMWFYVMNTC (designed binder) [23R_mini_01], the binding result in test [1] is listed as “binds”.
For the molecule CKVKCGPVEFEATERWMCFYWYNKYC (designed binder) [23R_mini_17_C11], in test [2], the binding entry is recorded as “binds”.
In the case of CRVCKNKFCVDAVACWMAYYLLNQYT (designed binder) [23R_mini_14_C5], in test [2], the binding result is reported as “binds”.
With CKVKCGGVEFEATERWMCYYWLWKYC (designed binder) [23R_mini_17_C1], in test [2], the binding entry is listed as “binds”.
CERAHEWAKRVGGWEAFYMANKLC (designed binder) [23R_mini_05]: the binding entry in test [1] is “binds”.
On to CRVCMNGMCVDARECWMAYYLLNQYN (designed binder) [23R_mini_14_C12], for which, in test [2], the binding entry is listed as “binds”.
Consider CKVKCGPVEFEATERWMCFYWLWKYC (designed binder) [23R_mini_17_C10], for which the binding result in test [2] is given as “binds”.
For the molecule CRVCMNGMCVDAVECWMAYYLLNQYT (designed binder) [23R_mini_14_C14], the binding entry in test [2] is on record as “binds”.

B4: mB01 (designed binder)
chain: NLWQIFYMLVTIIKRTGDPTAKKLLKALQEAVKKYDEKAVKELAKKALKYIRS
Turning to B4, the binding result in test [3] was “binds”.

B5: mB03 (designed binder)
chain: NLWQIFYMLNTIIKRTGDPTAKKLLKALQEATKKWDEKATKELAKKATKYIRS
Consider B5, for which the binding entry in test [3] was “binds”.

B6: mB11 (designed binder)
chain: NLWQIFYVLSTIIKRTGDPTAKKLLKALQEAVKKNDEKALKELAKKAMKYIRS
In the case of B6, the binding result in test [3] is recorded as “binds”.

B7: mB13 (designed binder)
chain: NLWQIFYVLVTIIKRTGDPTAKKLLKALQEAVKKGDEKATKELAKKALKYIRS
Regarding B7, the binding result in test [3] is reported as “binds”.

B8: mB12 (designed binder)
chain: NLWQIFYVLVTINKRTGDPTAKKLLKALQEAVKKGDEKAVKELAKKATKYIRS
Turning to B8, in test [3], the binding result was “binds”.

B9: mB02 (designed binder)
chain: NLWQIFYLLSTIWKRTGDPTAKKLLKALQEAVKKNDEKATKELAKKALKYIRS
B9: the binding result in test [3] is given as “binds”.

B10: mB06 (designed binder)
chain: NLWQIFYLLQTILKRTGDPTAKKLLKALAEAVKKWDEKAVKELAKKATKYIRS
For the molecule B10, the binding entry in test [3] is listed as “binds”.

B11: mB10 (designed binder)
chain: NLWQIFYILVTIIKRTGDPTAKKLLKALQEAVKKYDEKATKELAKKALKYIRS
In the case of B11, in test [3], the binding result is “binds”.

B12: mB05 (designed binder)
chain: NLWQIFYMLVTIIKRTGDPTAKKLLKALQEANKKWDEKATKELAKKAMKYIRS
Consider B12, for which the binding entry in test [3] is “binds”.

B13: mB07 (designed binder)
chain: NLWQIFYLLSTIWKRTGDPTAKKLLKALNEALKKHDEKAVKELAKKALKYIRS
On to B13, for which the binding result in test [3] is listed as “binds”.

B14: mB14 (designed binder)
chain: NLWQIFYMLSTIIKRTGDPTAKKLLKALQEATKKWDEKATKELAKKATKYIRS
Take B14: in test [3], the binding entry is “binds”.

B15: mB04 (designed binder)
chain: NLWVIFYQLVTIWKRTGDPTAKKLLKALQEAVKKNDEKATKELAKKATKYIRS
As for B15, the binding result in test [3] was “binds”.

B16: mB08 (designed binder)
chain: NLWQIFYVLLTIIKRTGDPTAKKLLKALQEAVKKYDEKALKELAKKAMKYIRS
As to B16, the binding entry in test [3] is “binds”.

B17: mB09 (designed binder)
chain: NLWQIFYQLLTIIKRTGDPTAKKLLKALQEAVKKNDEKAVKELAKKATKYIRS
Regarding B17, the binding entry in test [3] is “binds”.

B18: mB15 (designed binder)
chain: NLWQIFYMLSTIIKRTGDPTAKKLMKALQEATKKWDEKATKELAKKAMKYIRS
For the molecule B18, the binding entry in test [3] is listed as “binds”.
With CKVKCGGVEFEATERWMCFYWLWKYC (designed binder) [23R_mini_17_C3], the binding result in test [2] was “binds”.
Turning to CRVCKNGFCVDAQECWMAYYLLNQYT (designed binder) [23R_mini_14_C3], in test [2], the binding entry was “binds”.
